PubChem BioAssay AID743448 – Peter MacCallum Cancer Centre – 2014
This is one part, drawn at random, of 106 deposited reagents. 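Calls are per line and drug panel including etoposide, not vorinostat-specific; gene picks needed hits in two or more extra lines with vorinostat versus etoposide.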 Unmarked entries are inactive. Not all columns of the deposit are shown.

- Screen: 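Find knock-downs giving vorinostat-specific cell death in several colon cancer lines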 (follow-up of hits)
- Cells: four human colon cancer cell lines: HCT116-VR (vorinostat-resistant HCT116 derivative), SW480, SW620 and LIM1215
- Reagent: siRNA pool against human genes, 40 nM siRNA pool
- Timing: drug added two days after transfection, read one day later
- Conditions: vorinostat 2.5 µM on one half of each plate, etoposide 5 µM on the other half
- Measured: 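Caspase luminescence and viability fluorescence, each expressed relative to mock transfection and also as robust z-scores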
- Direction: caspase ratio to mock: higher = more caspase activity than mock; viability ratio to mock: higher = more live cells than mock
- Hit rule: 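Hit means caspase ratio to mock at least 1.6, or viability ratio to mock at most 0.75; wells with strong death in the absence of drug get no call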
- Meaning of the calls: active = caspase or viability hit in this panel; inactive = no change, or unhealthy well

target | cell line and drug panel | caspase ratio to mock | viability ratio to mock
THOC5 (THO complex subunit 5) | LIM1215 cells with etoposide | 2.58 (active) | 0.8
THOC5 (THO complex subunit 5) | LIM1215 cells with vorinostat | 1.58 | 0.87
THOC5 (THO complex subunit 5) | SW480 cells with etoposide | 2.12 (active) | 0.88
THOC5 (THO complex subunit 5) | SW480 cells with vorinostat | 1.65 (active) | 0.94
THOC5 (THO complex subunit 5) | SW620 cells with etoposide | 1.2 | 0.83
THOC5 (THO complex subunit 5) | SW620 cells with vorinostat | 1.73 (active) | 0.94
THOC5 (THO complex subunit 5) | vorinostat-resistant HCT116 cells with etoposide | 1.93 (active) | 0.84
THOC5 (THO complex subunit 5) | vorinostat-resistant HCT116 cells with vorinostat | 3.22 (active) | 0.88
NPC1L1 (NPC1 like intracellular cholesterol transporter 1) | LIM1215 cells with etoposide | 1.84 | 0.94
NPC1L1 (NPC1 like intracellular cholesterol transporter 1) | LIM1215 cells with vorinostat | 1.93 (active) | 0.98
NPC1L1 (NPC1 like intracellular cholesterol transporter 1) | SW480 cells with etoposide | 2.63 (active) | 0.9
NPC1L1 (NPC1 like intracellular cholesterol transporter 1) | SW480 cells with vorinostat | 2.33 (active) | 0.92
NPC1L1 (NPC1 like intracellular cholesterol transporter 1) | SW620 cells with etoposide | 1.29 | 0.97
NPC1L1 (NPC1 like intracellular cholesterol transporter 1) | SW620 cells with vorinostat | 1.41 | 0.96
NPC1L1 (NPC1 like intracellular cholesterol transporter 1) | vorinostat-resistant HCT116 cells with etoposide | 1.14 | 1.02
NPC1L1 (NPC1 like intracellular cholesterol transporter 1) | vorinostat-resistant HCT116 cells with vorinostat | 1.2 | 0.97
UTP3 (UTP3 small subunit processome component) | LIM1215 cells with etoposide | 1.38 | 0.88
UTP3 (UTP3 small subunit processome component) | LIM1215 cells with vorinostat | 1.11 | 0.8
UTP3 (UTP3 small subunit processome component) | SW480 cells with etoposide | 0.86 | 0.86
UTP3 (UTP3 small subunit processome component) | SW480 cells with vorinostat | 1.28 (active) | 0.75
UTP3 (UTP3 small subunit processome component) | SW620 cells with etoposide | 0.84 | 0.94
UTP3 (UTP3 small subunit processome component) | SW620 cells with vorinostat | 1.44 | 0.89
UTP3 (UTP3 small subunit processome component) | vorinostat-resistant HCT116 cells with etoposide | 1.4 | 0.92
UTP3 (UTP3 small subunit processome component) | vorinostat-resistant HCT116 cells with vorinostat | 1.52 | 0.82
POLR2G (RNA polymerase II subunit G) | LIM1215 cells with etoposide | 2 (active) | 0.98
POLR2G (RNA polymerase II subunit G) | LIM1215 cells with vorinostat | 3.08 (active) | 0.95
POLR2G (RNA polymerase II subunit G) | SW480 cells with etoposide | 3.17 (active) | 0.86
POLR2G (RNA polymerase II subunit G) | SW480 cells with vorinostat | 1.99 (active) | 0.72
POLR2G (RNA polymerase II subunit G) | SW620 cells with etoposide | 1.59 | 0.84
POLR2G (RNA polymerase II subunit G) | SW620 cells with vorinostat | 2.13 (active) | 0.84
POLR2G (RNA polymerase II subunit G) | vorinostat-resistant HCT116 cells with etoposide | 3.84 (active) | 0.82
POLR2G (RNA polymerase II subunit G) | vorinostat-resistant HCT116 cells with vorinostat | 3.18 (active) | 0.76
OR2W5 | LIM1215 cells with etoposide | 1.54 | 1
OR2W5 | LIM1215 cells with vorinostat | 2 (active) | 1
OR2W5 | SW480 cells with etoposide | 1.63 (active) | 1.01
OR2W5 | SW480 cells with vorinostat | 1.54 | 1
OR2W5 | SW620 cells with etoposide | 1.04 | 0.98
OR2W5 | SW620 cells with vorinostat | 1.05 | 0.99
OR2W5 | vorinostat-resistant HCT116 cells with etoposide | 1.72 (active) | 0.98
OR2W5 | vorinostat-resistant HCT116 cells with vorinostat | 1.88 (active) | 0.92

3 entries from above in another layout:
{"target":"POLR2G (RNA polymerase II subunit G)","cell line and drug panel":"LIM1215 cells with vorinostat","caspase ratio to mock":"3.08 (active)","viability ratio to mock":0.95}
{"target":"POLR2G (RNA polymerase II subunit G)","cell line and drug panel":"SW480 cells with etoposide","caspase ratio to mock":"3.17 (active)","viability ratio to mock":0.86}
{"target":"POLR2G (RNA polymerase II subunit G)","cell line and drug panel":"SW480 cells with vorinostat","caspase ratio to mock":"1.99 (active)","viability ratio to mock":0.72}
